# Source: PubChem BioAssay AID1259254 (NCATS, 2017)
# Purpose: 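Finding genes that stop cells copying their DNA twice in one cycle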 (primary screen)
# System: human HCT116 colorectal cancer cells
# Reagent: single siRNA against human genes
# Duration: 3 days
# Detection: 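Nuclei stained with Hoechst and imaged; cell-cycle phase assigned by DNA content; G2 share scaled per plate, non-targeting siRNA 0%, GMNN siRNA 100%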
# Direction: G2 robust z-score and G2 cells, % of GMNN control: higher = more G2 cells, more excess DNA replication; raw share of cells in G2: higher = larger share of cells with G2 DNA content
# Rule for the call: 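Active siRNAs have a G2 robust z of 5 or more median absolute deviations over the median, which in these data means about 38% or higher of GMNN control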
# The whole screen tested about 59,000 reagents; this is a random part of them. Of all reagents, about 1,550 (2.6%) were called active. 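G2 share is only a proxy for re-replication; each gene was hit by three separate siRNAs, and active genes were retested.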 Raw values vary from plate to plate and are shown uncorrected. The numbers tell different reagents against one gene apart. Reagent sequences are not shown. Not stated in the record: the amount of reagent.
gene symbol,siRNA no.,G2 robust z-score,"G2 cells, % of GMNN control",raw share of cells in G2 (%),call
AZGP1,1,-0.736,-2.21,4.26,inactive
AZGP1,2,2.16,18.2,10.8,inactive
AZGP1,3,4.32,33.3,16.6,inactive
CRAT,1,3.72,29.1,15.4,inactive
CRAT,2,1.15,11,9.02,inactive
CRAT,3,5.95,44.9,19.6,active
HSPA12A,1,-0.486,-0.451,2.94,inactive
HSPA12A,2,0.81,8.66,6.17,inactive
HSPA12A,3,-0.401,0.149,3.58,inactive
GNA14,1,3.71,29.1,13.1,inactive
GNA14,2,0.597,7.17,7.66,inactive
GNA14,3,1.65,14.6,10.7,inactive
BAAT,1,0.434,6.02,7.22,inactive
BAAT,2,0.0152,3.07,5.14,inactive
BAAT,3,1.69,14.8,9.77,inactive
SUOX,1,2.43,20,11.4,inactive
SUOX,2,0.582,7.06,6.3,inactive
SUOX,3,0.807,8.65,8.59,inactive
DTX3,1,0.75,8.25,5.93,inactive
DTX3,2,0.164,4.12,4.6,inactive
DTX3,3,-0.237,1.3,3.98,inactive
TRIP6,1,-0.715,-2.07,4.72,inactive
TRIP6,2,-1.16,-5.21,2.76,inactive
TRIP6,3,-0.492,-0.491,4.08,inactive
ZCCHC13,1,1.46,13.3,11.6,inactive
ZCCHC13,2,1.17,11.2,9.34,inactive
ZCCHC13,3,-0.362,0.42,4.44,inactive
GINS2,1,-0.298,0.871,4.57,inactive
GINS2,2,1.16,11.1,11,inactive
GINS2,3,2.55,20.9,11.8,inactive
ENTPD1-AS1,1,-0.393,0.205,3.62,inactive
ENTPD1-AS1,2,-0.474,-0.365,2.74,inactive
ENTPD1-AS1,3,-0.491,-0.486,3.42,inactive
S100A16,1,-0.234,1.32,3.99,inactive
S100A16,2,0.883,9.18,6.25,inactive
S100A16,3,1.83,15.8,8.66,inactive
DPH2,1,0.546,6.81,8.5,inactive
DPH2,2,0.354,5.46,6.09,inactive
DPH2,3,0.308,5.14,5.53,inactive
DZIP1L,1,4.54,34.9,17.5,inactive
DZIP1L,2,1.25,11.8,11.6,inactive
DZIP1L,3,-0.385,0.26,4.81,inactive
THSD4,1,-0.426,-0.0284,2.78,inactive
THSD4,2,-1.04,-4.37,3.94,inactive
THSD4,3,1.4,12.8,7.67,inactive
F13A1,1,0.617,7.31,7.89,inactive
F13A1,2,1.25,11.7,9.73,inactive
F13A1,3,1.36,12.6,8.13,inactive

An excerpt from above, showing only “raw share of cells in G2 (%)”.
DPH2 #1	8.5
DPH2 #2	6.09
DPH2 #3	5.53
DZIP1L #1	17.5
DZIP1L #2	11.6
DZIP1L #3	4.81
